Where a name gives a salt, the structure may show the parent alone. For at least one compound, name, drawing or mass did not settle the structure.
Assay: Drug destruction on curing, thiolene coating with PTPO on polypropylene mesh, HPLC of methanol extracts (Example 6)
Format: physicochemical
Settings: 0.1 wt % PTPO, halogen dental curing lamp, six coats, theoretical 0.2 mg/cm^2 each drug
Procedure: 1:1:8 weight ratio of monomer (67.22 wt % pentaerythritol tetrakis(3-mercaptopropionate), 32.73 wt % triallyl isocyanurate, and 0.05 wt % hydroquinone:tertbutyl cathetol (1:1 mixture by mole)):methanol:acetone containing minocycline hydrocholoride and rifampin at 50 mg/mL of each drug blend was made. PTPO (BASF P/N 56415733) was added at 0.1 wt %. Polymerization was induced using a halogen dental curing lamp through curing at a distance 2″ from the light guide for 10 seconds on each side of the mesh. Six coats were applied to result in a theoretical loading of 0.2 mg/cm^2 of each drug. HPLC analysis of methanol extracts indicated 72% and 69% destruction of minocycline hydrochloride and rifampin, respectively. High degradation rates may be the result of the phosphine oxide initiator, which could destroy these drugs upon activation.

Compound CN(C)c1ccc(O)c2c1C[C@H]1C[C@H]3[C@H](N(C)C)C(O)=C(C(N)=O)C(=O)[C@@]3(O)C(O)=C1C2=O [Minocycline, minocycline hydrochloride] has a destruction of drug of 72%.

Source: patent US10729820B2, “Methods and processes for application of drug delivery polymeric coatings” (Ariste Medical, LLC, priority 2014, dated 2020)
